This note sets out measurements from patent US20110123534A1.

Chains of the proteins cited; added tags and fusions are not shown. Residues count along the entry.
UniProt P60953, residues 1-188: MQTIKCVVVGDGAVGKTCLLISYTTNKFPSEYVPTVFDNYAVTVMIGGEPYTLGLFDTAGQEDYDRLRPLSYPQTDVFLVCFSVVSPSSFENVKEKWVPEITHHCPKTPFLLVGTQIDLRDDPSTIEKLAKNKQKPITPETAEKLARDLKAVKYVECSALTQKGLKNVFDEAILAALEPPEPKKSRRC
UniProt Q6ZNL6: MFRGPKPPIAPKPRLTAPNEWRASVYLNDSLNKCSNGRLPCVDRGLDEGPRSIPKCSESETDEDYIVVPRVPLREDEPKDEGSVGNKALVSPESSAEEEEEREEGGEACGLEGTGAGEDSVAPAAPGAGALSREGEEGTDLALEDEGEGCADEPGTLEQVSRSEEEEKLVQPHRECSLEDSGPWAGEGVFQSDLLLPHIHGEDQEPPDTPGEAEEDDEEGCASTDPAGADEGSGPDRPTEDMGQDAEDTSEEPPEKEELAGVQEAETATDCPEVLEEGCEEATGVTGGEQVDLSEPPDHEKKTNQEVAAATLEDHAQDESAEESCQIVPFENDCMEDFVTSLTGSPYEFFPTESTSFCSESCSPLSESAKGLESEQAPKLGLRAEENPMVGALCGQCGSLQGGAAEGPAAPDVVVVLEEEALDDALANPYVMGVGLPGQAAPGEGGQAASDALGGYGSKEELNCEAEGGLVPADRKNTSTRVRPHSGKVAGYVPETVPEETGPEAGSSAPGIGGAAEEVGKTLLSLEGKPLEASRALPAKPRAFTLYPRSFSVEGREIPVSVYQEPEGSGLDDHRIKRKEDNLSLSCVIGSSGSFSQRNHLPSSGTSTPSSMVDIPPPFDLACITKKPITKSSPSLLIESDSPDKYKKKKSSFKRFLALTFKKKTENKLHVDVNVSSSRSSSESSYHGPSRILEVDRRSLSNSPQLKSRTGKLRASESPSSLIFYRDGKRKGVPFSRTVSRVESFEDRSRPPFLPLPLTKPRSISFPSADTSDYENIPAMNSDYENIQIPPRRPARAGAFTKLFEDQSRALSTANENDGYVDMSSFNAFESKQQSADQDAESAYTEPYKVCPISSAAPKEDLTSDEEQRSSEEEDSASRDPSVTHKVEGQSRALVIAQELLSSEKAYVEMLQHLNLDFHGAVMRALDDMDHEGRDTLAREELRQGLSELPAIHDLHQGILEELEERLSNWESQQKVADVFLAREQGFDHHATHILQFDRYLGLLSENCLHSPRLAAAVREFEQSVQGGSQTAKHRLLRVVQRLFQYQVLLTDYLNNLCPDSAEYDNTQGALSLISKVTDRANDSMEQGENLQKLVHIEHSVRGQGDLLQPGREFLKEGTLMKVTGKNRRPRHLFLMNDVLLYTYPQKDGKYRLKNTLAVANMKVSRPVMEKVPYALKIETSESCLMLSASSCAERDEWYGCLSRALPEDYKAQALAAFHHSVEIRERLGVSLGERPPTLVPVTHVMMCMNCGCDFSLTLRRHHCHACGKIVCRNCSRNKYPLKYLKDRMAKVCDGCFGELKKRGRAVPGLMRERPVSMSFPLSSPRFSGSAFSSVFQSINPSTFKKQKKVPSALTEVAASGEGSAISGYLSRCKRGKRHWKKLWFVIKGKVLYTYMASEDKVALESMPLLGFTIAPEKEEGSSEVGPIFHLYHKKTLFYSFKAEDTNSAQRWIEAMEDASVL

Results are given in words; binding and its absence hold for the method and conditions named. Binding seen in cells or lysates may run through a third protein. Some binding calls cover weakened binding; strength is not graded here.

In this experiment the target is cdc42 (endogenous in HUVEC lysate) (human) (UniProt P60953). The experiment is described as follows: co-immunoprecipitation with anti-FGD5 antibody from lysates of FGD5 overexpressing HUVECs, western blot. Background: In western blotting, separated proteins are transferred to a membrane and probed.

Take “FYVE, RhoGEF and PH domain-containing 5 (FGD5), human, overexpressed in HUVECs by adenovirus (Ad-FGD5) (from UniProt Q6ZNL6 1-1462)”: the binding result is “binds”.
